Values from PubChem BioAssay AID493246 (Drosophila RNAi Screening Center, 2011)

- Test: 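Genome-wide search for dsRNAs that reduce cell number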 (primary screen)
- Cell system: Drosophila Kc and S2R+ cells
- Knock-down reagent: long dsRNA against Drosophila genes
- Measured: 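Cell number per well after knock-down, printed as raw plate values; calls were based on per-plate z-scores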
- Scale: Kc cell number and S2R+ cell number: higher = more cells remaining
- Call rule: 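Active when the per-plate z-score of cell number is 3 or more in the direction of fewer cells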
The screen tested about 21,000 reagents; shown is a random part of those that have a named target and a result. Over the whole deposit, 429 (2%) got an active call. 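Values are raw and not normalised between plates; calls rest on per-plate z-scores that were not deposited.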 Unmarked entries are inactive. Not given: the amount of reagent, the time to read-out.

Gene | amplicon | Kc cell number, rep 1 | Kc cell number, rep 2 | S2R+ cell number, rep 1 | S2R+ cell number, rep 2
Las | DRSC11772 | 1.33e6 | 1.42e6 | 1.26e6 | 1.26e6
CG4554 | DRSC04473 | 1.26e6 | 1.32e6 | 1.03e6 | 1.13e6
AsnRS-m | DRSC07010 | 1.49e6 | 1.48e6 | 1.14e6 | 1.29e6
CG33322 | DRSC03204 | 1.43e6 | 1.54e6 | 1.31e6 | 3.15e5
prel | DRSC07271 | 1.45e6 | 1.47e6 | 1.17e6 | 1.19e6
Dhc16F | DRSC20242 | 1.41e6 | 1.48e6 | 1.06e6 | 1.15e6
chb | DRSC11469 | 1.40e6 | 1.51e6 | 1.07e6 | 1.24e6
CG33514 | DRSC08471 | 1.35e6 | 1.31e6 | 1.05e6 | 1.20e6
CG33514 | DRSC08472 | 1.68e6 | 1.56e6 | 1.08e6 | 1.20e6
CG33281 | DRSC00421 | 1.52e6 | 1.46e6 | 1.11e6 | 1.18e6
CG6125 | DRSC15970 | 1.48e6 | 1.49e6 | 1.09e6 | 1.25e6
CG15345 (retired record) | DRSC18030 | 1.51e6 | 1.62e6 | 1.10e6 | 1.18e6
Taf9 | DRSC20326 | 1.72e6 | 1.81e6 | 1.10e6 | 1.24e6
CG15109 | DRSC06536 | 1.52e6 | 1.55e6 | 1.17e6 | 1.25e6
Cdc50 | DRSC20224 | 1.72e6 | 1.73e6 | 1.09e6 | 1.19e6
CG31221 | DRSC14335 | 1.35e6 | 1.47e6 | 1.05e6 | 1.17e6
CG31221 | DRSC16217 | 1.32e6 | 1.34e6 | 1.05e6 | 1.13e6
sick | DRSC02090 | 1.69e6 | 1.81e6 | 1.04e6 | 2.25e5
sick | DRSC02301 | 1.64e6 | 1.63e6 | 1.28e6 | 3.39e5
sick | DRSC02302 | 1.54e6 | 1.58e6 | 1.30e6 | 2.86e5
sick | DRSC02303 | 1.48e6 | 1.66e6 | 1.22e6 | 3.36e5
sick | DRSC02306 | 1.66e6 | 1.74e6 | 1.45e6 | 3.61e5
MTF-1 | DRSC08983 | 1.67e6 | 1.63e6 | 1.21e6 | 1.35e6
MTF-1 | DRSC11217 | 1.50e6 | 1.59e6 | 1.05e6 | 1.14e6

Records above whose gene name begins with S or s:
Gene | amplicon | Kc cell number, rep 1 | Kc cell number, rep 2 | S2R+ cell number, rep 1 | S2R+ cell number, rep 2
sick | DRSC02090 | 1.69e6 | 1.81e6 | 1.04e6 | 2.25e5
sick | DRSC02301 | 1.64e6 | 1.63e6 | 1.28e6 | 3.39e5
sick | DRSC02302 | 1.54e6 | 1.58e6 | 1.30e6 | 2.86e5
sick | DRSC02303 | 1.48e6 | 1.66e6 | 1.22e6 | 3.36e5
sick | DRSC02306 | 1.66e6 | 1.74e6 | 1.45e6 | 3.61e5
